In the supplement of paper PMC10849652:
The other results are listed elsewhere or left out.

Sequences of proteins named here, by UniProt entry; tags and fusion partners are left off. A change or cut given only in a name is not applied to a line headed by its entry.
UniProt Q6UB28: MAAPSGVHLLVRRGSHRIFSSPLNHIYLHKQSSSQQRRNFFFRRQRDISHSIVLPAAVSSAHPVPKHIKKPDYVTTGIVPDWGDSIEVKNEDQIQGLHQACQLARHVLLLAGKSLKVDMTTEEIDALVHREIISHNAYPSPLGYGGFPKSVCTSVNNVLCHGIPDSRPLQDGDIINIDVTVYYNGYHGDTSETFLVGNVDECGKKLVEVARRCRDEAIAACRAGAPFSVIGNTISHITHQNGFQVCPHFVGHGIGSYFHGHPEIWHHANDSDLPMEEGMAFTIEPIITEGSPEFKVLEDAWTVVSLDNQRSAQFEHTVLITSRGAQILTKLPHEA
UniProt Q9UQ53: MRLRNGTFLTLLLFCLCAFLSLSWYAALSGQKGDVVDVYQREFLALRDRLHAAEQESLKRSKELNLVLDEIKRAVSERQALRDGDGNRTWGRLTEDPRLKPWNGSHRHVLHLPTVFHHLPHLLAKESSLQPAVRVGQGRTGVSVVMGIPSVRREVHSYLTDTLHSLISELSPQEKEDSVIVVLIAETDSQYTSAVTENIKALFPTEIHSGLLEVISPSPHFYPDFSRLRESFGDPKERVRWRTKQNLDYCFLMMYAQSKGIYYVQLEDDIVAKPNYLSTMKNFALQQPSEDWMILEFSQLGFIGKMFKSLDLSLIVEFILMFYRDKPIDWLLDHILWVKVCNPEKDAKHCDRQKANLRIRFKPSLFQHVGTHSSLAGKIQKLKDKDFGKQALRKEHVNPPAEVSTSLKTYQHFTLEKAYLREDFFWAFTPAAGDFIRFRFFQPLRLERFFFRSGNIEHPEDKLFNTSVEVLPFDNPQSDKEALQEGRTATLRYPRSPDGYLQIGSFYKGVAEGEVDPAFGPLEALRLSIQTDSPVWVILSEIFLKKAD
UniProt Q86U44, whole entry, looked up: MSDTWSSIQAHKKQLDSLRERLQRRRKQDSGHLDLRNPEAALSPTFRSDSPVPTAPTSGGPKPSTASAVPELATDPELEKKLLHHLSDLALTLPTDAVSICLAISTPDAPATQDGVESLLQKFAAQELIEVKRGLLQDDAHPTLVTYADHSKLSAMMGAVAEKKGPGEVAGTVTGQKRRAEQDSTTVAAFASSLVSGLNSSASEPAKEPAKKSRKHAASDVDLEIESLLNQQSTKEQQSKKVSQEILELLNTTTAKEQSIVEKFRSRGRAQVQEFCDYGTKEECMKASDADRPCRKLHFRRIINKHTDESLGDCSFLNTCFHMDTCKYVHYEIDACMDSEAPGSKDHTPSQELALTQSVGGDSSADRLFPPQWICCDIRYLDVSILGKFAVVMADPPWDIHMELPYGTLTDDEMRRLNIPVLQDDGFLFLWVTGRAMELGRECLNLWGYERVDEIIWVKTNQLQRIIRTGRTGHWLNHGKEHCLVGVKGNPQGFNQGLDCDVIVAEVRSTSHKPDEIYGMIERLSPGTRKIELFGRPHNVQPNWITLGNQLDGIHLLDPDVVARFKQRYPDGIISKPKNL
UniProt Q06413, whole entry, looked up: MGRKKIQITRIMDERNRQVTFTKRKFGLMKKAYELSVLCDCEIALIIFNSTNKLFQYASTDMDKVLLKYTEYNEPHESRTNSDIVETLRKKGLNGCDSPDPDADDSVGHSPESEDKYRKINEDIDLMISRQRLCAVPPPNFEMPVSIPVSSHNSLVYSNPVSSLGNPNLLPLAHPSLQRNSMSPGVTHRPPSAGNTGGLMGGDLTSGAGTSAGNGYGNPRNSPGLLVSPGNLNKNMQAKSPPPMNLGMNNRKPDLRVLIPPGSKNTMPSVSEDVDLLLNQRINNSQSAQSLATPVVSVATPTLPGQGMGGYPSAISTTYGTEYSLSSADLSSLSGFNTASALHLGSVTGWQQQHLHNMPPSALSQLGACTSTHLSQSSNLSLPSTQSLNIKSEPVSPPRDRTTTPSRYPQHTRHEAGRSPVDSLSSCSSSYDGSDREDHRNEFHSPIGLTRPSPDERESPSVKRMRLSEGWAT
UniProt Q9Y316: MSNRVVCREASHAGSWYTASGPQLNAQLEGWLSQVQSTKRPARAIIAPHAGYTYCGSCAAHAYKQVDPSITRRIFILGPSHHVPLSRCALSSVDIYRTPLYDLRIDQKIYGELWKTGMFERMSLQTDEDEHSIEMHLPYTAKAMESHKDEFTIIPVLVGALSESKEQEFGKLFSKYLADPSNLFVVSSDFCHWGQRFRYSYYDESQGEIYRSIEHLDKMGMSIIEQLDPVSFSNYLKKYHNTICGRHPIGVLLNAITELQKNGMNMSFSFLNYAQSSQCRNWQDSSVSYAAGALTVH
UniProt Q14728: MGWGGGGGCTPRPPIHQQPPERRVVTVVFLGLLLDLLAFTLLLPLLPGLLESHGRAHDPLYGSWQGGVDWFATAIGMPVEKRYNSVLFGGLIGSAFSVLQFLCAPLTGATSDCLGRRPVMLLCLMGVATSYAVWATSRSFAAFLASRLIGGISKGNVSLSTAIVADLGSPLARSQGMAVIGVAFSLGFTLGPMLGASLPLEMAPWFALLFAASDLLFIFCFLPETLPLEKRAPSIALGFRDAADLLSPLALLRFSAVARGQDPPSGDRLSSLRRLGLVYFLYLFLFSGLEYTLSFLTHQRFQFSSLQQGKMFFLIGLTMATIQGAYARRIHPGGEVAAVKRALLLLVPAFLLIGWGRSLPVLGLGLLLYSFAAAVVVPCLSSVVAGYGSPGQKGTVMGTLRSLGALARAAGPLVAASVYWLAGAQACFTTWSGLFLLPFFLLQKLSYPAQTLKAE
UniProt Q9NWR8: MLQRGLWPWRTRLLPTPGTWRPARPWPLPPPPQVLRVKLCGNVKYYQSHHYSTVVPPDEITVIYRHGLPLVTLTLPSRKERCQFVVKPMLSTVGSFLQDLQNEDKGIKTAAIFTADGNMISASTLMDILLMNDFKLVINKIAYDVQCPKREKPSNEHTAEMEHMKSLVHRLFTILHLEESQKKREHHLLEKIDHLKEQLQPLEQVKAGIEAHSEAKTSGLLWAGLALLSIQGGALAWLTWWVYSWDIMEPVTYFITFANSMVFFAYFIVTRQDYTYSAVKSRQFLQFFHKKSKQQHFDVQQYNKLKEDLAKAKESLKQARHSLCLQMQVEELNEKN
UniProt P33993, whole entry, looked up: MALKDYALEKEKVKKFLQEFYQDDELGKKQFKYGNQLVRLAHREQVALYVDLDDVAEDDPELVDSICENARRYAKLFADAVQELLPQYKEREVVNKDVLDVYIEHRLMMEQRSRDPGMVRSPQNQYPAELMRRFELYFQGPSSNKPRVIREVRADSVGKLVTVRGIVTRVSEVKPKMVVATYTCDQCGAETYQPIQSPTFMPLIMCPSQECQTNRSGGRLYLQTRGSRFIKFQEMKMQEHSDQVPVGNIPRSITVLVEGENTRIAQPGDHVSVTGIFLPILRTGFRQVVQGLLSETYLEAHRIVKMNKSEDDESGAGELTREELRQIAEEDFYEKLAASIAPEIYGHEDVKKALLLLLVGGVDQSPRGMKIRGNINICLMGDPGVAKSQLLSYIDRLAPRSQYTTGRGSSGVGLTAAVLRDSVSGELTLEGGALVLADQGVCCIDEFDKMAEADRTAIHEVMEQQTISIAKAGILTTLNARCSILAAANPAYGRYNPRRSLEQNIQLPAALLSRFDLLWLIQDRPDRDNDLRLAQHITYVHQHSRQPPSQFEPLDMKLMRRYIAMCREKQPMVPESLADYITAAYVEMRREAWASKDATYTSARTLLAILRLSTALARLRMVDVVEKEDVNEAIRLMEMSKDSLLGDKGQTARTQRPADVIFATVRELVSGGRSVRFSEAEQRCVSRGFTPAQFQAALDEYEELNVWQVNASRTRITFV
UniProt Q00266: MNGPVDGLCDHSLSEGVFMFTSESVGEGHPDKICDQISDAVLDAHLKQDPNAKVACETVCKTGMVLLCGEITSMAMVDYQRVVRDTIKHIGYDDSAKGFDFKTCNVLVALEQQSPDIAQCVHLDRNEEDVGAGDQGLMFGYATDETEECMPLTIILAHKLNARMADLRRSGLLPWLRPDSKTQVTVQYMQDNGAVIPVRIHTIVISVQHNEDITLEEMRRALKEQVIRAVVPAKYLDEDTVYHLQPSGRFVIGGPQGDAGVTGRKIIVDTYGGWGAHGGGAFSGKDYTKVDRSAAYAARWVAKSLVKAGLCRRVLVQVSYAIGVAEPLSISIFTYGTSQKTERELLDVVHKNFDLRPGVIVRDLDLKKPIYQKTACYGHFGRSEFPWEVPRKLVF
UniProt Q5SR56: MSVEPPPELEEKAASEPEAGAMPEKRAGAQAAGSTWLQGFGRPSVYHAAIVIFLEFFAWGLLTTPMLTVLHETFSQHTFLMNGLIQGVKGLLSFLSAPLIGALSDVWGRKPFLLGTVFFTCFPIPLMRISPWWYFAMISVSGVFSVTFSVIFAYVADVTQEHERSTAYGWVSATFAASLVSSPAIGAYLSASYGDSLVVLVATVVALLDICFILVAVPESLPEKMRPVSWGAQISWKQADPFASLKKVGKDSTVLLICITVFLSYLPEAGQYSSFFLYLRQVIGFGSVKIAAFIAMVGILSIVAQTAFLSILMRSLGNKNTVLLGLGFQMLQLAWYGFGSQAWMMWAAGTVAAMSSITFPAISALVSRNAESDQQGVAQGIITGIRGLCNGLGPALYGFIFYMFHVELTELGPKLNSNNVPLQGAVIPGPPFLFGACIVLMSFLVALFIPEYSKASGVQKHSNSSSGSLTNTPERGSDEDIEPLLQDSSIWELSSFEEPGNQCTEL
UniProt Q16626: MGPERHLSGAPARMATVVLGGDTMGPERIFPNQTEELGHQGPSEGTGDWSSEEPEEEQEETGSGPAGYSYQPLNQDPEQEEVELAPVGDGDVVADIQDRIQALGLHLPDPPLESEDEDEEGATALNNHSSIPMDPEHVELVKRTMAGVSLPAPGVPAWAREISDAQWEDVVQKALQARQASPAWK
UniProt Q6P2C8: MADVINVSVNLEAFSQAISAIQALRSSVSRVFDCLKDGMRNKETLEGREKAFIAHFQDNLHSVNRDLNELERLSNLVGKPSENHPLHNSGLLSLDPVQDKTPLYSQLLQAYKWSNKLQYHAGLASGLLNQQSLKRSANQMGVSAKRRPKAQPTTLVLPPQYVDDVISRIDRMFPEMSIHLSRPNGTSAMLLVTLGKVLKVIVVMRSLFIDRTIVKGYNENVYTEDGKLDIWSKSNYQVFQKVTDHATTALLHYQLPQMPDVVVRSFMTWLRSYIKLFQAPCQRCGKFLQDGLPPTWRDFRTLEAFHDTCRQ
UniProt Q9NVC6: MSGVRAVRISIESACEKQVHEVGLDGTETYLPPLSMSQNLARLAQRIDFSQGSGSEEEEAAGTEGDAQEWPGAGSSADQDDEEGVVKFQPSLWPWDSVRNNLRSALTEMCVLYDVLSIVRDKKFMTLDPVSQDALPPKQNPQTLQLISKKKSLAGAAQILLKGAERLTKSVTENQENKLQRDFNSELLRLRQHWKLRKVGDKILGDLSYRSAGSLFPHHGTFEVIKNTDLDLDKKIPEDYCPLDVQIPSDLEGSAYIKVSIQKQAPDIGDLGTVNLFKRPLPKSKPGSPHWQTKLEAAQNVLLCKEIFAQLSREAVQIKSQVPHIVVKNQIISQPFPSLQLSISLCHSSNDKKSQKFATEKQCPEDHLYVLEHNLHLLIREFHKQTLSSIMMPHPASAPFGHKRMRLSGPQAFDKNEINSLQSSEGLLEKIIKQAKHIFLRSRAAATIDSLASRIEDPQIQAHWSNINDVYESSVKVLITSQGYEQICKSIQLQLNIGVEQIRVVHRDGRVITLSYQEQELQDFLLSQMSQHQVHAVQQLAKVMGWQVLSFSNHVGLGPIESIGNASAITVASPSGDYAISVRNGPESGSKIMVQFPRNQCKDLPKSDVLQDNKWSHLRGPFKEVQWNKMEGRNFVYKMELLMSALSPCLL
UniProt Q8IWA4: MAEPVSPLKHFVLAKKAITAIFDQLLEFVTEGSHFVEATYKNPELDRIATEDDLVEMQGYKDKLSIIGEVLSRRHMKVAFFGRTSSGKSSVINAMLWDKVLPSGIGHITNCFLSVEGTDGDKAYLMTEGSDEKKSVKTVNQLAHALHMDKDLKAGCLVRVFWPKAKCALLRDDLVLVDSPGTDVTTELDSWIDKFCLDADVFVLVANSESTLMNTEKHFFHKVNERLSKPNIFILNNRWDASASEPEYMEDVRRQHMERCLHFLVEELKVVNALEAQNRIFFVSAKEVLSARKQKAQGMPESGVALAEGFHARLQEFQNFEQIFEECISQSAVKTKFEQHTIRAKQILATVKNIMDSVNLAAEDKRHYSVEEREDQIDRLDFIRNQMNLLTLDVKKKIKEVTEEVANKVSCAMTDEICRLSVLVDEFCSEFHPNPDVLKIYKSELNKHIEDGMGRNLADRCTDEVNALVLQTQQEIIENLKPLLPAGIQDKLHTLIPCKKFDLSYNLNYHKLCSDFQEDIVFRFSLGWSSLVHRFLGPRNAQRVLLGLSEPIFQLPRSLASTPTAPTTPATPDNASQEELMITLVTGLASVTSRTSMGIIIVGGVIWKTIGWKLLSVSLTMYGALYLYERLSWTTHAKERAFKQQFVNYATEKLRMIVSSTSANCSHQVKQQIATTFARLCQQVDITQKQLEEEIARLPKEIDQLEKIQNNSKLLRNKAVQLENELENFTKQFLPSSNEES

Key:
Assay in all cases: log2 fold change, soluble protein after heating vs DMSO (PISA); higher = thermal stabilisation; K562 cells, 10 uM, 30 min; active = over 0.2 and 3.5 SD of the protein, either way, in both replicates (recomputed)
erlotinib = compound: C#Cc1cccc(Nc2ncnc3cc(OCCOC)c(OCCOC)cc23)c1 [erlotinib]
Outline: (§1)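 K562 cells (2×10^6 cells/mL) were treated with 10 μM compound for 30 min, and aliquots were heated for 3 min over 48°C-58°C. Pooled aliquots were extracted in PBS with 0.5% NP-40 at 4°C, and the supernatant after 21,000xg for 90 min was measured by TMTpro 16plex LC-MS/MS with channel sums equalised. Reported thermal stability, relative to control samples and from duplicates, is a log2 fold change.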

[1] = compound: C/C(=N\NC(=O)C1=CC(=CC=C1)S(=O)(=O)N2CCOCC2)/C3=C(C=CC(=C3)Cl)O
Outline: as §1

[2] = compound: C1=CC(=C(C=C1Cl)C2=NC3=NC=CN=C3C(=N2)NC4=CC=NC=C4)F
Outline: as §1

[3] = compound: C1=CC(=CC=C1C2=NC3=C(N2)C=C(C=C3)C(=O)N)OC4=CC=C(C=C4)Cl
Outline: as §1

[4] = compound: C1=CC2=C(C=CC(=C2)/C=C\3/C(=O)NC(=NCC4=CC=CS4)S3)N=C1
Outline: as §1

[5] = compound: C1=CC2=NC=CN=C2C=C1/C=C/3\C(=O)NC(=O)S3
Outline: as §1

[6] = compound: C1=CC=C(C=C1)C2=NC(=C(N2)C3=CC=NC=C3)C4=CC(=C(C=C4)Cl)O
Outline: as §1

[7] = compound: C1=CC=C2C(=C1)C3=NNC4=CC=CC(=C43)C2=O
Outline: as §1

[8] = compound: C1CCN(C1)C(=O)NC2=CC=CC(=C2)NC3=NC=C(C(=N3)NCCC4=CN=CN4)Br
Outline: as §1

[9] = compound: C1CN(CCC1(CC2=CC=C(C=C2)Cl)N)C3=NC=NC4=C3C=CN4
Outline: as §1

Measured: log2 fold change

METTL16 (UniProt Q86W50)
inactive: erlotinib 0 | [1] 0.021 | [2] -0.004 | [3] 0.002 | [4] 0.013 | [5] 0.035 | [6] 0.034 | [7] -0.097 | [8] -0.053 | [9] 0.012

MDN1 (UniProt Q9NU22)
inactive: erlotinib 0.063 | [1] 0.11 | [2] 0.02 | [3] -0.025 | [4] 0.144 | [5] 0.037 | [6] 0.02 | [7] -0.022 | [8] -0.025 | [9] 0

MFAP1 (UniProt P55081)
inactive: erlotinib -0.007 | [1] -0.069 | [2] -0.038 | [3] 0.002 | [4] -0.039 | [5] 0.047 | [6] -0.098 | [7] -0.054 | [8] -0.038 | [9] 0.044

METAP1D (UniProt Q6UB28)
inactive: erlotinib -0.061 | [1] -0.307 | [2] -0.02 | [3] 0.025 | [4] -0.004 | [5] -0.014 | [6] 0.005 | [7] -0.002 | [8] -0.018 | [9] 0.033

MGAT4B isoform 3 (UniProt Q9UQ53)
inactive: erlotinib 0.057 | [1] -0.007 | [2] 0.065 | [3] 0.005 | [4] 0.101 | [5] -0.037 | [6] 0.042 | [7] -0.039 | [8] -0.008 | [9] 0.101

METTL3 (UniProt Q86U44)
inactive: erlotinib -0.015 | [1] 0.053 | [2] 0.088 | [3] 0.039 | [4] 0.035 | [5] 0.028 | [6] -0.022 | [7] 0.006 | [8] -0.041 | [9] 0.06

MEF2C isoform 5 (UniProt Q06413)
inactive: erlotinib -0.005 | [1] -0.05 | [2] 0.032 | [3] -0.041 | [4] 0.079 | [5] 0.028 | [6] -0.045 | [7] -0.027 | [8] 0.037 | [9] 0.027

MAT2B (UniProt Q9NZL9)
inactive: erlotinib 0.018 | [1] 0.024 | [2] 0 | [3] 0.012 | [4] 0.022 | [5] 0.005 | [6] -0.049 | [7] -0.004 | [8] -0.002 | [9] 0.02

MEMO1 (UniProt Q9Y316)
inactive: erlotinib 0.062 | [1] 0.101 | [2] 0.056 | [3] 0.039 | [4] -0.016 | [5] 0.018 | [6] 0.03 | [7] 0.035 | [8] -0.008 | [9] 0.044

MFSD10 (UniProt Q14728)
inactive: erlotinib -0.023 | [1] 0.084 | [2] 0.08 | [3] 0.061 | [4] -0.018 | [5] 0.055 | [6] 0.078 | [7] -0.018 | [8] -0.046 | [9] -0.027

MCUB (UniProt Q9NWR8)
inactive: erlotinib -0.01 | [1] 0.021 | [2] 0.063 | [3] 0.039 | [4] 0.116 | [5] -0.237 | [6] 0.054 | [7] 0.018 | [8] 0.044 | [9] 0.031

MDH2 (UniProt P40926)
inactive: erlotinib -0.041 | [1] 0.012 | [2] 0.018 | [3] 0.013 | [4] -0.026 | [5] -0.013 | [6] -0.025 | [7] -0.002 | [8] 0.032 | [9] 0.052

MED30 (UniProt Q96HR3)
inactive: erlotinib -0.111 | [1] 0.011 | [2] -0.059 | [3] -0.025 | [4] 0.013 | [5] 0.057 | [6] -0.045 | [7] -0.024 | [8] -0.03 | [9] -0.021

MBNL1 (UniProt Q9NR56)
inactive: erlotinib 0 | [1] 0.018 | [2] 0.034 | [3] -0.052 | [4] -0.078 | [5] 0.046 | [6] 0.018 | [7] -0.057 | [8] 0.036 | [9] 0.003

MCM7 (UniProt P33993)
inactive: erlotinib -0.005 | [1] 0.058 | [2] 0.061 | [3] -0.005 | [4] -0.021 | [5] 0.008 | [6] 0.031 | [7] 0.012 | [8] -0.001 | [9] -0.002

METAP1 (UniProt P53582)
inactive: erlotinib 0.036 | [1] -0.049 | [2] 0.025 | [3] -0.017 | [4] 0.027 | [5] 0.095 | [6] -0.003 | [7] -0.013 | [8] 0.005 | [9] 0.069

MGAT2 (UniProt Q10469)
inactive: erlotinib 0.03 | [1] 0.117 | [2] 0.088 | [3] 0 | [4] 0.003 | [5] 0.045 | [6] 0.036 | [7] 0.052 | [8] -0.057 | [9] 0.007

MAT1A (UniProt Q00266)
inactive: erlotinib 0 | [1] -0.021 | [2] -0.008 | [3] 0.009 | [4] -0.066 | [5] 0.035 | [6] -0.051 | [7] -0.031 | [8] 0.02 | [9] 0.048

MED1 (UniProt Q15648)
inactive: erlotinib -0.022 | [1] -0.011 | [2] -0.118 | [3] -0.001 | [4] 0.04 | [5] 0.043 | [6] -0.03 | [7] -0.043 | [8] 0.016 | [9] -0.025

MFSD14B (UniProt Q5SR56)
inactive: erlotinib -0.047 | [1] -0.023 | [2] -0.016 | [3] 0.049 | [4] -0.041 | [7] 0.003 | [8] -0.02 | [9] 0.013

MCCC1 (UniProt Q96RQ3)
inactive: erlotinib 0.008 | [1] -0.007 | [2] 0.112 | [3] 0.116 | [4] 0.048 | [5] 0.009 | [6] 0.048 | [7] 0.016 | [8] -0.025 | [9] -0.016

MEA1 (UniProt Q16626)
inactive: erlotinib -0.094 | [1] -0.031 | [2] 0.026 | [3] 0.064 | [4] 0.1 | [5] -0.08 | [6] -0.034 | [7] -0.013 | [8] -0.017 | [9] -0.004

METTL21A (UniProt Q8WXB1)
inactive: erlotinib 0.158 | [1] -0.146 | [2] 0.016 | [3] 0.084 | [4] -0.053 | [5] 0.035 | [6] 0.029 | [7] 0.061 | [8] -0.091 | [9] 0.053

MED27 (UniProt Q6P2C8)
inactive: erlotinib 0.033 | [1] 0.118 | [2] -0.133 | [3] -0.138 | [4] 0.101 | [5] 0.347 | [7] -0.151

MGST2 (UniProt Q99735)
inactive: erlotinib -0.033 | [1] 0.032 | [2] -0.024 | [3] 0.049 | [4] 0.105 | [5] -0.011 | [6] 0.032 | [7] -0.043 | [8] -0.084 | [9] 0.053

MCTS1 isoform 3 (UniProt Q9ULC4)
inactive: erlotinib -0.027 | [1] 0.002 | [2] 0.015 | [3] 0.006 | [4] -0.03 | [5] 0.002 | [6] 0.012 | [7] 0 | [8] 0.012 | [9] 0.061

MED17 (UniProt Q9NVC6)
inactive: erlotinib 0.017 | [1] 0.064 | [2] -0.077 | [3] 0.072 | [4] -0.083 | [6] 0.094 | [7] -0.034 | [8] -0.194 | [9] -0.047

MGST1 (UniProt P10620)
inactive: erlotinib -0.032 | [1] -0.037 | [2] 0.063 | [3] 0.021 | [4] 0.02 | [5] 0.038 | [6] 0.024 | [7] -0.057 | [8] -0.004 | [9] -0.049

MEIS2 (UniProt O14770)
inactive: erlotinib 0.049 | [1] 0.213 | [3] 0.021 | [4] 0.135 | [5] 0.102 | [6] 0.046 | [7] 0.059

MFN1 (UniProt Q8IWA4)
inactive: erlotinib -0.002 | [1] -0.026 | [2] 0.042 | [3] 0.001 | [4] 0.07 | [5] 0.347 | [6] -0.016 | [7] -0.015 | [8] 0.025 | [9] -0.039

MCM5 (UniProt P33992)
inactive: erlotinib 0.004 | [1] 0.04 | [2] 0.065 | [3] -0.005 | [4] -0.006 | [5] 0.007 | [6] 0.078 | [7] 0.011 | [8] -0.028 | [9] -0.011

7 consecutive entries from above, quoted:
METTL21A (UniProt Q8WXB1)
inactive: erlotinib 0.158 | [1] -0.146 | [2] 0.016 | [3] 0.084 | [4] -0.053 | [5] 0.035 | [6] 0.029 | [7] 0.061 | [8] -0.091 | [9] 0.053

MED27 (UniProt Q6P2C8)
inactive: erlotinib 0.033 | [1] 0.118 | [2] -0.133 | [3] -0.138 | [4] 0.101 | [5] 0.347 | [7] -0.151

MGST2 (UniProt Q99735)
inactive: erlotinib -0.033 | [1] 0.032 | [2] -0.024 | [3] 0.049 | [4] 0.105 | [5] -0.011 | [6] 0.032 | [7] -0.043 | [8] -0.084 | [9] 0.053

MCTS1 isoform 3 (UniProt Q9ULC4)
inactive: erlotinib -0.027 | [1] 0.002 | [2] 0.015 | [3] 0.006 | [4] -0.03 | [5] 0.002 | [6] 0.012 | [7] 0 | [8] 0.012 | [9] 0.061

MED17 (UniProt Q9NVC6)
inactive: erlotinib 0.017 | [1] 0.064 | [2] -0.077 | [3] 0.072 | [4] -0.083 | [6] 0.094 | [7] -0.034 | [8] -0.194 | [9] -0.047

MGST1 (UniProt P10620)
inactive: erlotinib -0.032 | [1] -0.037 | [2] 0.063 | [3] 0.021 | [4] 0.02 | [5] 0.038 | [6] 0.024 | [7] -0.057 | [8] -0.004 | [9] -0.049

MEIS2 (UniProt O14770)
inactive: erlotinib 0.049 | [1] 0.213 | [3] 0.021 | [4] 0.135 | [5] 0.102 | [6] 0.046 | [7] 0.059
